Laboratory results: PubChem BioAssay AID1259308 (NCATS, 2017)
Purpose: 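Knock-downs that increase output of a recombinant reporter protein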 (primary screen). Cell system: human HEK293 embryonic kidney cells stably expressing firefly luciferase (HEK-CMV-Luc2-Hygro). Reagents: single siRNA against human genes, 0.8 pmol siRNA per well. Duration: 72 h. Read-out: 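Luciferase light (ONE-Glo) measured on one replicate plate set and viability (CellTiter-Glo) on the other, scaled to a negative control siRNA, with robust z-scores and luciferase per cell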. Scale: total luciferase, z-score and total luciferase, % of control: higher = more reporter protein produced. Hit rule: 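Active when the median/MAD z-score for overall luciferase is greater than 3; a gene was taken forward for validation with new siRNAs if at least two of its three siRNAs passed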. Meaning of the calls: active = raised luciferase; inactive = no rise.
Here is one part, drawn at random, of about 59,000 reagents tested. Over the whole deposit, about 1,510 (2.6%) got an active call. 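Calls use total luciferase alone and ignore viability, so some active siRNAs may act by altering cell number.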 A number with no mark means an inactive call. Reagents against one gene are numbered here. Further read-outs or replicates are left out here. No sequences are given here.

Target gene,reagent no.,"total luciferase, z-score","total luciferase, % of control"
WFDC11,1,0.029,82.5
WFDC11,2,-0.6,70
WFDC11,3,0.163,85.1
SYTL2,1,0.148,84.8
SYTL2,2,-1.02,61.6
SYTL2,3,0.581,93.4
PWWP3B,1,0.00157,81.9
PWWP3B,2,-0.792,66.1
PWWP3B,3,0.718,96.2
MATN4,1,2.8,138
MATN4,2,2.02,122
MATN4,3,-0.0694,80.5
EREG,1,0.648,94.8
EREG,2,-0.891,64.2
EREG,3,0.476,91.3
RHBDL2,1,0.0874,83.6
RHBDL2,2,-0.777,66.4
RHBDL2,3,0.476,91.4
PITX3,1,-0.338,75.2
PITX3,2,0.73,96.4
PITX3,3,0.973,101
PPCS,1,0.376,89.4
PPCS,2,-0.484,72.3
PPCS,3,0.643,94.7
